From US20050085418A1 (CELLTECH R AND D, published 2005)
Results are given in words; binding and its absence hold for the method and conditions named. Some entries that bind do so weakly or less than the wild type.

Chains of the proteins cited; added tags and fusions are not shown. Residues count along the entry.
UniProt Q9BQB4, residues 24-213: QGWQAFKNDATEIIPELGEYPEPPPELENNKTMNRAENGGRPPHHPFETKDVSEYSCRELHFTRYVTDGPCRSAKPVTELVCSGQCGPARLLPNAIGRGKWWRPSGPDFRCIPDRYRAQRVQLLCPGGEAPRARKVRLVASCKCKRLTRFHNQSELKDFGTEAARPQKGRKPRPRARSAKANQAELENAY
UniProt Q99P67, residues 24-213: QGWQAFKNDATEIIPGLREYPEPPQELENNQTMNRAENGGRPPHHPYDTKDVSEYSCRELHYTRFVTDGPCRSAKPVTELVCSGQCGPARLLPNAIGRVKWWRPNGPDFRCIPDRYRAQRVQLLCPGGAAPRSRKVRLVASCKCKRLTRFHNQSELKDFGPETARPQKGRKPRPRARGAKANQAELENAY
UniProt P22004, residues 382-513: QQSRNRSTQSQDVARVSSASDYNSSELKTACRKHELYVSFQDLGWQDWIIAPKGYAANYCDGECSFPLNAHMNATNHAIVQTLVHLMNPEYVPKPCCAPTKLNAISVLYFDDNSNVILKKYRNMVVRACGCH

Legend:
[1] = molecular target: purified human sclerostin-FLAG® fusion protein (human) (UniProt Q9BQB4); test: SPR, human sclerostin-FLAG immobilised on the chip, BMP-6 injected
[2] = molecular target: purified human sclerostin-FLAG® fusion protein (human) (UniProt Q9BQB4); test: SPR (legend of FIG. 6)
[3] = molecular target: poly-histidine-tagged rat sclerostin (rat) (UniProt Q99P67); test: SPR (legend of FIG. 6)
[4] = molecular target: poly-histidine-tagged rat sclerostin (rat) (UniProt Q99P67); test: SPR, chip-immobilised His-tagged rat sclerostin (FIG. 6)
[5] = molecular target: poly-histidine-tagged rat sclerostin (rat) (UniProt Q99P67); test: SPR, poly-histidine-tagged rat sclerostin immobilised on the chip, BMP-6 injected
[6] = molecular target: purified human sclerostin-FLAG® fusion protein (human) (UniProt Q9BQB4); test: SPR on immobilised sclerostin: buffer or candidate anti-sclerostin antibody injected first, then BMP-6 [both panels]
[7] = molecular target: purified human sclerostin-FLAG® fusion protein (human) (UniProt Q9BQB4); test: SPR, chip-immobilised human sclerostin-FLAG (FIG. 6)
[8] = molecular target: purified human sclerostin-FLAG® fusion protein (human) (UniProt Q9BQB4); test: SPR on immobilised sclerostin, first injection of the coinject experiment [left panel]

binding [1]: binds
binding [2]: binds
binding [3]: binds
binding [4]: binds
binding [5]: binds
binding [6]: binds
binding [7]: binds
binding [8]: binds
Substance: human BMP-6 (from UniProt P22004 382-513) (ligand)
